Values from PubChem BioAssay AID504764 (Drosophila RNAi Screening Center, 2011)
In all, the deposit lists about 22,000 reagents; this is a random part of those with a known target gene and a result. Over the whole deposit, 403 (1.9%) were called active. 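Unnormalised raw counts per well; ratio z-scores behind the hit calls and whether each hit raises or lowers signal are not deposited.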 The record does not give: the amount of reagent.

- Test: 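Knock-downs that raise or lower a Notch target reporter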 (primary screen)
- Cells: Drosophila Kc167 cells
- Knock-down reagent: long dsRNA against Drosophila genes
- Duration: about 5 days (4 days dsRNA, then 24 h after transfection)
- Conditions: transfection of constitutively active membrane-tethered Notch lacking the extracellular domain, read 24 h later
- Read-out: 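Light from a Notch-responsive E(spl)m3 luciferase reporter under active Notch, with control-promoter and no-Notch reporter wells to normalise; raw counts from paired wells a and b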
- Direction: induced reporter light, run 1, well a and induced reporter light, run 1, well b: higher = more light from the Notch target reporter with active Notch; control promoter light, run 1, well a and control promoter light, run 1, well b: higher = more light from the viral control promoter (cell number, transfection, viability); uninduced reporter light, run 1, well a: higher = more light from the Notch target reporter without active Notch
- Active means: 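Hit if the duplicate-averaged log2 ratio of induced to control-promoter light gives a plate-wise z beyond ±2, or induced to uninduced beyond ±1.8; weak-control or discordant-duplicate wells dropped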
- Meaning of the calls: active = modifier hit (raised or lowered Notch signal); inactive = not a hit

| target | dsRNA | induced reporter light, run 1, well a | induced reporter light, run 1, well b | control promoter light, run 1, well a | control promoter light, run 1, well b | uninduced reporter light, run 1, well a | outcome |
| --- | --- | --- | --- | --- | --- | --- | --- |
| SkpC (SKP1-related C) | DRSC20375 | 77435 | 97990 | 74975 | 1.03e5 | 9745 | inactive |
| CG18327 | DRSC06722 | 96530 | 1.10e5 | 1.12e5 | 1.23e5 | 8930 | inactive |
| CSN4 (COP9 signalosome subunit 4) | DRSC07350 | 96120 | 89615 | 87915 | 84160 | 12010 | inactive |
| arg (arginase) | DRSC18737 | 1.71e5 | 1.82e5 | 2.27e5 | 2.00e5 | 12765 | inactive |
| CG33627 | DRSC05343 | 2.30e5 | 2.49e5 | 3.11e5 | 3.82e5 | 20745 | inactive |
| CG8249 | DRSC07125 | 1.28e5 | 88230 | 1.25e5 | 1.33e5 | 10550 | inactive |
| MCTS1 (Malignant T cell amplified sequence 1) | DRSC18393 | 1.87e5 | 1.79e5 | 2.39e5 | 2.00e5 | 14950 | inactive |
| MBD-R2 | DRSC14180 | 46975 | 53385 | 51550 | 48240 | 2500 | inactive |
| H (Hairless) | DRSC16692 | 2.27e5 | 2.00e5 | 2.05e5 | 2.29e5 | 31460 | active |
| CG11594 | DRSC08207 | 1.47e5 | 1.17e5 | 84155 | 34995 | 10105 | inactive |
| CG31091 | DRSC15933 | 1.52e5 | 1.64e5 | 1.96e5 | 1.96e5 | 13588 | inactive |
| Pdk (Pyruvate dehydrogenase kinase) | DRSC07504 | 1.63e5 | 1.74e5 | 1.67e5 | 1.58e5 | 14505 | inactive |
| CG31806 | DRSC02787 | 95705 | 1.01e5 | 1.22e5 | 1.30e5 | 8455 | inactive |
| Tre1 (Trapped in endoderm 1) | DRSC18726 | 1.22e5 | 1.16e5 | 2.27e5 | 1.88e5 | 9775 | inactive |
| Dhc98D (Dynein heavy chain at 89D) | DRSC16645 | 1.50e5 | 1.58e5 | 1.71e5 | 1.67e5 | 12200 | inactive |
| pkm (Pinkman) | DRSC19674 | 2.45e5 | 2.29e5 | 2.48e5 | 2.33e5 | 15110 | inactive |
| RacGAP84C (Rac GTPase activating protein at 84C) | DRSC12630 | 1.30e5 | 1.10e5 | 81565 | 78325 | 8190 | inactive |
| homer | DRSC03547 | 1.51e5 | 1.48e5 | 1.57e5 | 2.20e5 | 11495 | inactive |
| CG13053 | DRSC09934 | 1.39e5 | 1.52e5 | 2.01e5 | 1.39e5 | 8335 | inactive |
| vimar (visceral mesodermal armadillo-repeats) | DRSC05026 | 1.95e5 | 1.48e5 | 1.56e5 | 1.65e5 | 10385 | inactive |
| CG42369 | DRSC03244 | 1.23e5 | 1.04e5 | 1.36e5 | 99230 | 7990 | inactive |
| Panx (Panoramix) | DRSC04563 | 46365 | 40500 | 46985 | 69395 | 2605 | inactive |
| Usp47 (Ubiquitin specific protease 47) | DRSC11313 | 99755 | 1.03e5 | 84570 | 34630 | 11160 | inactive |
| SamDC (S-adenosylmethionine decarboxylase) | DRSC03429 | 2.03e5 | 1.74e5 | 1.68e5 | 1.61e5 | 17470 | inactive |
| Daxx (Daxx-like protein) | DRSC03255 | 1.09e5 | 88970 | 96850 | 84400 | 7515 | inactive |
| Sf3b5 (Splicing factor 3b subunit 5) | DRSC14460 | 75805 | 72410 | 56865 | 60110 | 4855 | inactive |
| Art3 (Arginine methyltransferase 3) | DRSC16065 | 1.41e5 | 1.64e5 | 91270 | 94910 | 10742 | inactive |
| CG33322 | DRSC03204 | 39100 | 29520 | 38250 | 28980 | 2955 | inactive |
| ADD1 (ADD domain-containing protein 1) | DRSC07135 | 1.05e5 | 96520 | 1.23e5 | 1.21e5 | 9065 | inactive |
| RpLP0 (Ribosomal protein LP0) | DRSC11878 | 19660 | 20560 | 37090 | 26030 | 1305 | inactive |
| sff (sugar-free frosting) | DRSC10590 | 1.23e5 | 1.51e5 | 80305 | 96255 | 11685 | inactive |
| CG17287 | DRSC06659 | 67720 | 88160 | 1.06e5 | 98940 | 8555 | inactive |
| CG31373 | DRSC16052 | 1.02e5 | 89765 | 93065 | 93210 | 4160 | inactive |

8 entries already listed, ordered by “induced reporter light, run 1, well a”, descending:
| target | dsRNA | induced reporter light, run 1, well a | induced reporter light, run 1, well b | control promoter light, run 1, well a | control promoter light, run 1, well b | uninduced reporter light, run 1, well a | outcome |
| --- | --- | --- | --- | --- | --- | --- | --- |
| pkm (Pinkman) | DRSC19674 | 2.45e5 | 2.29e5 | 2.48e5 | 2.33e5 | 15110 | inactive |
| vimar (visceral mesodermal armadillo-repeats) | DRSC05026 | 1.95e5 | 1.48e5 | 1.56e5 | 1.65e5 | 10385 | inactive |
| homer | DRSC03547 | 1.51e5 | 1.48e5 | 1.57e5 | 2.20e5 | 11495 | inactive |
| Dhc98D (Dynein heavy chain at 89D) | DRSC16645 | 1.50e5 | 1.58e5 | 1.71e5 | 1.67e5 | 12200 | inactive |
| CG13053 | DRSC09934 | 1.39e5 | 1.52e5 | 2.01e5 | 1.39e5 | 8335 | inactive |
| RacGAP84C (Rac GTPase activating protein at 84C) | DRSC12630 | 1.30e5 | 1.10e5 | 81565 | 78325 | 8190 | inactive |
| CG42369 | DRSC03244 | 1.23e5 | 1.04e5 | 1.36e5 | 99230 | 7990 | inactive |
| Panx (Panoramix) | DRSC04563 | 46365 | 40500 | 46985 | 69395 | 2605 | inactive |

Further entries follow.
| target | dsRNA | induced reporter light, run 1, well a | induced reporter light, run 1, well b | control promoter light, run 1, well a | control promoter light, run 1, well b | uninduced reporter light, run 1, well a | outcome |
| --- | --- | --- | --- | --- | --- | --- | --- |
| hpRNA:CR32205 (hairpin RNA:CR32205) | DRSC09890 | 1.07e5 | 95635 | 1.04e5 | 85905 | 6320 | inactive |
| RpS28a (Ribosomal protein S28a) | DRSC15064 | 93565 | 95335 | 1.51e5 | 1.48e5 | 7792 | inactive |
| SecCl (Secretory chloride channel) | DRSC10887 | 2.10e5 | 2.08e5 | 1.87e5 | 2.13e5 | 6425 | inactive |
| KLHL18 (Kelch like family member 18) | DRSC15496 | 1.48e5 | 1.25e5 | 93005 | 93875 | 13760 | inactive |
| CG9586 | DRSC03270 | 1.27e5 | 1.33e5 | 68600 | 85665 | 15505 | inactive |
| Cpsf5 (Cleavage and polyadenylation specific factor 5) | DRSC10374 | 98980 | 96365 | 59730 | 36535 | 7670 | inactive |
| nvy (nervy) | DRSC04705 | 65490 | 64390 | 42755 | 55300 | 4405 | inactive |
| CG17328 | DRSC01927 | 1.78e5 | 1.44e5 | 1.20e5 | 1.50e5 | 13310 | inactive |
| NT5E-2 (Ecto-5'-nucleotidase 2) | DRSC06893 | 86330 | 83870 | 1.75e5 | 1.78e5 | 7440 | inactive |
| CG5334 | DRSC19941 | 1.12e5 | 93470 | 1.05e5 | 91020 | 12900 | inactive |
| mre11 (meiotic recombination 11) | DRSC03570 | 2.64e5 | 2.53e5 | 2.60e5 | 2.58e5 | 18705 | inactive |
| shop (shopper) | DRSC20030 | 1.38e5 | 1.24e5 | 1.13e5 | 68170 | 10085 | inactive |
| CycD (Cyclin D) | DRSC20233 | 32685 | 32695 | 33525 | 25870 | 4225 | inactive |
| Dip-C (Dipeptidase C) | DRSC15855 | 1.30e5 | 1.22e5 | 81450 | 89740 | 8570 | inactive |
| Cpr60D (Cuticular protein 60D) | DRSC04492 | 1.38e5 | 1.47e5 | 1.56e5 | 1.28e5 | 9578 | inactive |
| und (uninitiated) | DRSC03629 | 2.49e5 | 2.48e5 | 2.37e5 | 2.24e5 | 18795 | inactive |
| Moe (Moesin) | DRSC18684 | 2.75e5 | 2.45e5 | 2.54e5 | 2.37e5 | 15350 | inactive |
| CG15254 | DRSC01870 | 1.18e5 | 1.39e5 | 1.51e5 | 1.35e5 | 12835 | inactive |
| Nup154 (Nucleoporin 154kD) | DRSC03384 | 1.64e5 | 2.18e5 | 1.57e5 | 1.83e5 | 14800 | inactive |
| CG15480 | DRSC02490 | 1.02e5 | 1.28e5 | 89045 | 1.09e5 | 11830 | inactive |
| CG16723 | DRSC15138 | 1.98e5 | 1.87e5 | 2.31e5 | 1.96e5 | 14050 | inactive |
| Erasp (Endoplasmic reticulum stress-associated serine protease) | DRSC07111 | 1.34e5 | 1.60e5 | 2.37e5 | 2.71e5 | 13125 | inactive |
| BicC (Bicaudal C) | DRSC02005 | 98450 | 87525 | 97180 | 94500 | 7730 | inactive |
| Tnks (tankyrase) | DRSC14154 | 1.54e5 | 2.08e5 | 2.16e5 | 2.48e5 | 13400 | inactive |
| CG7394 | DRSC10835 | 98725 | 80650 | 1.32e5 | 1.12e5 | 5675 | inactive |
| CG14420 | DRSC17917 | 1.16e5 | 1.04e5 | 1.50e5 | 1.78e5 | 8985 | inactive |
| drd (drop dead) | DRSC19343 | 1.16e5 | 1.34e5 | 1.30e5 | 1.21e5 | 18300 | inactive |
| drd (drop dead) | DRSC21466 | – | – | – | – | – | inactive |
| CG8736 | DRSC07255 | 1.50e5 | 1.48e5 | 1.84e5 | 1.81e5 | 12555 | inactive |
| CG13023 | DRSC09454 | 2.15e5 | 1.89e5 | 2.74e5 | 2.26e5 | 16388 | inactive |
| CG13023 | DRSC09903 | 1.86e5 | 1.55e5 | 2.09e5 | 1.83e5 | 9190 | inactive |
